# Library screen at single concentrations

Amino acid sequences for entries named in this document (tags omitted). Residues count along the entry.
UniProt I6X8D2, whole entry: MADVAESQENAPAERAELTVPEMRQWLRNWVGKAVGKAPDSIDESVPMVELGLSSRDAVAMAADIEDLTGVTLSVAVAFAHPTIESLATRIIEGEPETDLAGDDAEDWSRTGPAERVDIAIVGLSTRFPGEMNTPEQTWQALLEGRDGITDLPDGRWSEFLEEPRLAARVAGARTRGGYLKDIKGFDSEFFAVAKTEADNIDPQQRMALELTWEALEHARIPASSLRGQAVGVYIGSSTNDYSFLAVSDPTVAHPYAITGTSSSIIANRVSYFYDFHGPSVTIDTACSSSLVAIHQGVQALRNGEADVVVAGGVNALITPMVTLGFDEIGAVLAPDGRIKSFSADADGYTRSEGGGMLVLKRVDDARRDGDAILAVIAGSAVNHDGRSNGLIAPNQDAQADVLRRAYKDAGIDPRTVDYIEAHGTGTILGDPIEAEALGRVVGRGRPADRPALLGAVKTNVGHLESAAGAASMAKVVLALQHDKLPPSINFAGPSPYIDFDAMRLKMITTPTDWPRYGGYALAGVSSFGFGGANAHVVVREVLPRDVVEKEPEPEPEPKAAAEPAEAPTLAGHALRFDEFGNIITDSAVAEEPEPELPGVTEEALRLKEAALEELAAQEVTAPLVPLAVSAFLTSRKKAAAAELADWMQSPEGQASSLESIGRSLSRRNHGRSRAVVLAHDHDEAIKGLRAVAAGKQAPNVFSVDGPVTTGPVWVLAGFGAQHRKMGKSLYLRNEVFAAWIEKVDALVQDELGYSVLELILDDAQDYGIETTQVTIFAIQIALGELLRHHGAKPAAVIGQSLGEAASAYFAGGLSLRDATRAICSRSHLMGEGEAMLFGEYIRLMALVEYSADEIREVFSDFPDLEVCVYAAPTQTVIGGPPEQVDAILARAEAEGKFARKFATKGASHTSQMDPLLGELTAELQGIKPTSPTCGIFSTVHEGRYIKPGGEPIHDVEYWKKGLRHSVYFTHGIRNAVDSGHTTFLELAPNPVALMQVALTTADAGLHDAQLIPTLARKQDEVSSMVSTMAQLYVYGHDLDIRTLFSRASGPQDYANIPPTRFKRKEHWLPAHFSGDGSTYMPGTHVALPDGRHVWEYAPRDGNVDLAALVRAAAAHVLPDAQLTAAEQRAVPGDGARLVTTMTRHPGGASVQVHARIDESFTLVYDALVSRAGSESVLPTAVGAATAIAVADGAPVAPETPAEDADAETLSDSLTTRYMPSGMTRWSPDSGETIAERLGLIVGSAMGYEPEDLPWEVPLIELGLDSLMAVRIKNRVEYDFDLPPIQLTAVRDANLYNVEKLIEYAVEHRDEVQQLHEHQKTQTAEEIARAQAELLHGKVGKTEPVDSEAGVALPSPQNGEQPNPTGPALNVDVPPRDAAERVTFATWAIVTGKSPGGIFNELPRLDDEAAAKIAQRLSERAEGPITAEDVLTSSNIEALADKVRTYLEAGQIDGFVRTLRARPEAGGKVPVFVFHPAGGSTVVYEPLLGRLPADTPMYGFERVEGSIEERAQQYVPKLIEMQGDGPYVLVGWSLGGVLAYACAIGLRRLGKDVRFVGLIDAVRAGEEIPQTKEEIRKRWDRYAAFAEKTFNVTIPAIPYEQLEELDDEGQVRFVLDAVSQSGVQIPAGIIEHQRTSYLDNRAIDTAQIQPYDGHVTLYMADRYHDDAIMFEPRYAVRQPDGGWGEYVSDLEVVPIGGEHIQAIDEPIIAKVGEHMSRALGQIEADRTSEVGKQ
UniProt Q4DA54, 1-478: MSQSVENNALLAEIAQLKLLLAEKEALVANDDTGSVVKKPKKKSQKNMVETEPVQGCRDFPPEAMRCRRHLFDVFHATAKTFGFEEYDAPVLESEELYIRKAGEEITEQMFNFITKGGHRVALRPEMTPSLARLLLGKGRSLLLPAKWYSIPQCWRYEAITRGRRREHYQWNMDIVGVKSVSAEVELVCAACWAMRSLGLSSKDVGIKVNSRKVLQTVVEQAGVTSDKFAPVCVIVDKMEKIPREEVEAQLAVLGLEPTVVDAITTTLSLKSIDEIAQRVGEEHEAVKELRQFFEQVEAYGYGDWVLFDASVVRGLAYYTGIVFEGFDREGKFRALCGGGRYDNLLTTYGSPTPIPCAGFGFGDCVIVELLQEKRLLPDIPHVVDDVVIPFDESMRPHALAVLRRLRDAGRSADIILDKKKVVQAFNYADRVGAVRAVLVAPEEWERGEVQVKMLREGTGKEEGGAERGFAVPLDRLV
UniProt P9WPC5, whole entry: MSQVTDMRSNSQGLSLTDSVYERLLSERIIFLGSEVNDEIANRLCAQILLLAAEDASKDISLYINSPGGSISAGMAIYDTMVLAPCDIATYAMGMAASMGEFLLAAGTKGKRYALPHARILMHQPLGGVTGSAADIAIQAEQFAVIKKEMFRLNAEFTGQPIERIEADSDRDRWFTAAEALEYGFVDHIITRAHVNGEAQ
UniProt P9WPC3, whole entry partner: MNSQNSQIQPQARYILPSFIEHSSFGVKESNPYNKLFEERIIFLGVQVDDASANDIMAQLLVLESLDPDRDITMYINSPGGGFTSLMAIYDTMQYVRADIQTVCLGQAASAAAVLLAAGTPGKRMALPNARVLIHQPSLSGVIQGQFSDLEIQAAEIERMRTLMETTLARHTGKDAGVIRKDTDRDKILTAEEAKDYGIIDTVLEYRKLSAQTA
UniProt A4I591, 1-473: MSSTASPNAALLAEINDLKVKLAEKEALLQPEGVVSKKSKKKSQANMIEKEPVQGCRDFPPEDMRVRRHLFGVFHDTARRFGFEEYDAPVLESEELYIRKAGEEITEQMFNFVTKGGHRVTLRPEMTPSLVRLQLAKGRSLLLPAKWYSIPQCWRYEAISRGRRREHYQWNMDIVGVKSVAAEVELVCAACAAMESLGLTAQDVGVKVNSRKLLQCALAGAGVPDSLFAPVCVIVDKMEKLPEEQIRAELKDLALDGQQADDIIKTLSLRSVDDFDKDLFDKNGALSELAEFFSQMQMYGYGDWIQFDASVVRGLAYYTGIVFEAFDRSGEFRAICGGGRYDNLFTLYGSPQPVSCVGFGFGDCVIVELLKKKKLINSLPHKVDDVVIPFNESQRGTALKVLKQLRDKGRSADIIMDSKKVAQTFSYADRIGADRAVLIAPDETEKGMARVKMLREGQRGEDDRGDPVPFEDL

Pks13 thioesterase: 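Enzyme assay of the thioesterase domain of polyketide synthase 13; the read-out is not stated. Target: Polyketide synthase Pks13, Mycobacterium tuberculosis (UniProt I6X8D2). Compounds at 30 µM. The record gives no direction; the compounds picked for IC50 retests had high values, so higher reads as stronger inhibition. Of about 67,000 compounds tested this way, about 300 (0.46%) reached 50% or more in at least one test.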
TcHisRS: 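Histidine-tRNA ligase, Trypanosoma cruzi CL Brener (UniProt Q4DA54). Enzyme assay of histidyl-tRNA synthetase; the read-out is not stated. Tested at 30 µM. Direction is inferred from retests: higher values go with stronger inhibition. Of about 69,000 compounds tested this way, about 31 (0.045%) reached 50% or more in at least one test.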
ClpP1P2: 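ClpP1P2, Mycobacterium tuberculosis (UniProt P9WPC5 and UniProt P9WPC3). Protease assay of ClpP1P2, read by the AMC dye that it sets free. Concentration: 50 µM. Direction is inferred from only a few compounds that gave an IC50; most scored high, so higher reads as stronger inhibition. Most other retested compounds had strongly negative values. Size under these conditions: about 69,000 compounds, about 10 of them at 50% or above in at least one test.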
Leishmania in macrophages: 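Cell assay of Leishmania donovani living inside macrophages; the read-out is not stated. Concentration: 30 µM. Higher reads as stronger inhibition (inferred: compounds with an IC50 in retests scored well above the rest). About 69,000 compounds were tested under these conditions; 1.5% (about 1,000) showed 50% or more at least once.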
LiHisRS: 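Enzyme assay of histidyl-tRNA synthetase; the read-out is not stated. Target: Histidine-tRNA ligase, Leishmania infantum (UniProt A4I591). Concentration: 30 µM. Higher reads as stronger inhibition (inferred: compounds with an IC50 in retests scored well above the rest). The assay is labelled LdHisRS but filed under L. infantum. Of about 69,000 compounds tested this way, about 410 (0.6%) reached 50% or more in at least one test.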

Values are the deposited “Percent Effect”, in %.
The controls that fix the scale are not given in the record; negative values are as filed.
The compounds are a random part of those screened.

N#CCCN(CCC#N)C(=O)c1cccc(N2CCNC2=O)c1 read Pks13 thioesterase: -5.151%; TcHisRS: 13.94%; ClpP1P2: 2.908%; Leishmania in macrophages: 24.8%; LiHisRS: 11.11%. With [H][C@@]12CCN(Cc3c(C)noc3C)[C@]1([H])CC[C@H](c1nnc(C)o1)O2 the screen gave Leishmania in macrophages: -5.379%. Cc1nc(CN2C[C@@H]3CN(C(=O)c4cnccn4)C[C@@H]3C2=O)cs1 gave Pks13 thioesterase: -2.204%; TcHisRS: 3.941%; ClpP1P2: -1.544%; LiHisRS: 2.941%. With O=C(C1CC1)N1CC[C@@H]2[C@H](CC1)N(Cc1cccnc1)CCS2(=O)=O the screen gave Pks13 thioesterase: 5.203%; TcHisRS: 3.738%; ClpP1P2: -11.7%; LiHisRS: 11.11%. Cc1nc(CN(C)C2CCCN(c3cccnn3)C2)oc1C (centres undefined) read Pks13 thioesterase: -1.51%; TcHisRS: 21.33%; ClpP1P2: -19.43%; Leishmania in macrophages: 26.46%; LiHisRS: 21.43%.

CS(=O)(=O)CCCSc1n[nH]c(-c2ccc3c(c2)CCC3)n1 read Pks13 thioesterase: 66.26%; TcHisRS: 4.867%; ClpP1P2: -6.676%; Leishmania in macrophages: 18.29%; LiHisRS: 20.35%. O[C@@H]1C[C@@H](c2nc(-c3ccccc3)no2)N(Cc2ccncc2)C1 gave Pks13 thioesterase: -39.27%; TcHisRS: 1.493%; ClpP1P2: -10.98%; Leishmania in macrophages: 10.9%; LiHisRS: 19.44%. For O=C(O)C(F)(F)F.O=C(O)C(F)(F)F.c1nc(CN2CCC3(CC2)COCCN3CC2CC2)c[nH]1 the result was Leishmania in macrophages: 39.67%. COc1ccc(F)cc1C(=O)N1CCCC(CNS(C)(=O)=O)C1 (centres undefined) read Pks13 thioesterase: -7.085%; TcHisRS: 2.616%; ClpP1P2: -29.3%; Leishmania in macrophages: -9.27%; LiHisRS: 7.895%. Cc1noc(C)c1CN1C[C@H](OCC2CC2)[C@H]2OCCC[C@H]21 gave Pks13 thioesterase: -6.588%; TcHisRS: 2.542%; ClpP1P2: 11.42%; LiHisRS: 20.75%.

CNC(=O)Cc1ccccc1NC(=O)C1CCN(C2CCCCC2)C1 (centres undefined) read Pks13 thioesterase: -41.77%; TcHisRS: 2.597%; ClpP1P2: 1.827%; Leishmania in macrophages: 5.968%; LiHisRS: 17.14%. Cc1cnn(CC2CN(CCS(=O)(=O)c3ccccc3)CCO2)c1 (centres undefined) read Pks13 thioesterase: -9.028%; TcHisRS: 0%; ClpP1P2: -14.33%; Leishmania in macrophages: 15.86%; LiHisRS: 7.547%. Result for Cc1nc(CN2CCN3C[C@H](Oc4cncnc4)C[C@H]3C2)cs1 was Pks13 thioesterase: -2.658%; TcHisRS: 1.105%; ClpP1P2: -5.372%; LiHisRS: 6.306%. With Cc1occc1C(=O)N1CCC2(CCC2NC(=O)c2ccn(C)c2)CC1 (centres undefined) the screen gave Pks13 thioesterase: -36.59%; TcHisRS: 4.972%; ClpP1P2: -1.442%; Leishmania in macrophages: 11.32%; LiHisRS: 18.05%. Result for Cn1cc(CN2CCC[C@]3(C(=O)O)CN(c4cnccn4)CC[C@@H]23)cn1 was Pks13 thioesterase: -7.701%; TcHisRS: 10.06%; ClpP1P2: -13.95%; LiHisRS: 6.25%.

CCCS(=O)(=O)N1CCN(CCOC)c2nc(C)ccc2C1 gave Pks13 thioesterase: -17.29%; TcHisRS: 8.046%; ClpP1P2: 4.095%; LiHisRS: 14%. With Cc1cc(C)c2nc(CN(C)C(C)c3ccncn3)cc(O)c2c1 (centres undefined) the screen gave Pks13 thioesterase: -49.46%; TcHisRS: 11.6%; ClpP1P2: -4.278%; Leishmania in macrophages: 20.1%; LiHisRS: 5.208%. For CNC(=O)C(C)CNC(=O)c1coc(COc2cccc(F)c2F)n1 (centres undefined) the result was Pks13 thioesterase: -14.3%; TcHisRS: 4.04%; ClpP1P2: -3.613%; Leishmania in macrophages: 19.32%; LiHisRS: 16.39%. With CCC(C(=O)NC1(COC)CCCC1)n1cccn1 (centres undefined) the screen gave Pks13 thioesterase: 0.4165%; TcHisRS: 4.242%; ClpP1P2: -2.387%; Leishmania in macrophages: 6.549%; LiHisRS: 4.444%. CS(=O)(=O)N1C[C@H]2CCC[C@@]2(COc2ccccn2)C1 gave Pks13 thioesterase: -1.958%; TcHisRS: 7.317%; ClpP1P2: -16.6%; LiHisRS: 10.26%.

CN(C)CC1CN(Cc2cc(Cl)cc3cccnc23)CCO1 (centres undefined) read Pks13 thioesterase: -51.87%; TcHisRS: 4.459%; ClpP1P2: 3.421%; Leishmania in macrophages: 2.41%; LiHisRS: 29.58%. CCN(C)C[C@@H]1CN(Cc2cccc(Cl)c2)C[C@@H]1CO read Pks13 thioesterase: -17.73%; TcHisRS: 1.932%; ClpP1P2: -17.5%; Leishmania in macrophages: 46.41%; LiHisRS: 14.17%.

Once more, the final 2:

compound	Pks13 thioesterase	TcHisRS	ClpP1P2	Leishmania in macrophages	LiHisRS
CN(C)CC1CN(Cc2cc(Cl)cc3cccnc23)CCO1 (centres undefined)	-51.87	4.459	3.421	2.41	29.58
CCN(C)C[C@@H]1CN(Cc2cccc(Cl)c2)C[C@@H]1CO	-17.73	1.932	-17.5	46.41	14.17

The values are deposited in ChEMBL (CHEMBL3988442, “University of Dundee, Small-Polar-MMV Screening Library” (2021)).